Data taken from patent publication EP4818209A2 (Primatope Therapeutics Inc., dated 2026).
These are yes or no findings as the source states them, for the method shown. Some results given as binding are weak or reduced against the parent protein; the word gives no strength. Each block holds one binder with its values, some of them ahead of it.

Amino acid sequences for entries named in this document (tags omitted). A change or cut given only in a name is not applied to a line headed by its entry. Chains listed by the source or under a name are the forms on record and can include a tag or linker.
rhesus CD40 on blood B cells (CD20+ cells of rhesus PBMCs) (F6SNI1, form named): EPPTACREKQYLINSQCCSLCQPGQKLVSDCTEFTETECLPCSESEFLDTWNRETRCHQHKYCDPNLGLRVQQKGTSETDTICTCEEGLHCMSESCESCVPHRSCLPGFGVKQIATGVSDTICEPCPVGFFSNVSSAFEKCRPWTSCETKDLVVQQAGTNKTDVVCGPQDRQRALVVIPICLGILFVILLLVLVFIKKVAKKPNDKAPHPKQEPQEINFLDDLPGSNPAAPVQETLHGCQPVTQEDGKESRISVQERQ
UniProt P25942: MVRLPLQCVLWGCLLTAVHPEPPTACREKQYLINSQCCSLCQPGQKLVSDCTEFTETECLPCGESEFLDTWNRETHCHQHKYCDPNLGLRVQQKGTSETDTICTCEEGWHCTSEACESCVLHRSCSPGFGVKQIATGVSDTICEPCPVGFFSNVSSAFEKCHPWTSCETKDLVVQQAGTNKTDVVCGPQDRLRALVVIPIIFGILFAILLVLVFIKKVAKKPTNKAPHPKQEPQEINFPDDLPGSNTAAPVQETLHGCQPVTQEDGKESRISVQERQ

Assays:
[1] = biological target: rhesus CD40 on blood B cells (CD20+ cells of rhesus PBMCs) (rhesus macaque) (UniProt F6SNI1); test: flow cytometry on PBMCs, fluorochrome-conjugated 2C10 (Figure 2a)
recombinant human CD40 [2] = biological target: T1, recombinant human CD40 (human, UniProt P25942 21-120, limits assumed); test: ELISA, CD40 adsorbed to plates, goat anti-mouse IgG-HRP (Figure 2b)
T1 construct: biotinylated there; also called hCD40; purified CD40

[3] = biological target: recombinant rhesus CD40 (rhesus macaque (M. mulatta)); test: as above
recombinant human CD40 [4] = biological target: T1, recombinant human CD40; test: ELISA, recombinant CD40 adsorbed to plates, goat anti-mouse IgG-HRP
[5] = biological target: recombinant rhesus CD40 (rhesus macaque (M. mulatta)); test: as above
[6] = biological target: rhesus CD40 on blood B cells (CD20+ cells of rhesus PBMCs) (rhesus macaque) (UniProt F6SNI1); test: flow cytometry on PBMCs with fluorochrome-conjugated 2C10 and an anti-CD20 antibody
[7] = biological target: human CD40 fusion protein (printed 'CD40-NMP fusion') used on the BIACore 3000 (human) (UniProt P25942); test: BIACore 3000, h2C10 immobilized on a CM5 chip by amine coupling, CD40 fusion as analyte (Figure 16)
[8] = biological target: rhesus CD40 fusion protein (printed 'CD40-NMP fusion') used on the BIACore 3000 (rhesus); test: as above
[9] = biological target: rhesus CD40 on blood B cells (CD20+ cells of rhesus PBMCs) (rhesus macaque) (UniProt F6SNI1); test: receptor occupancy by flow cytometry on blood B cells of treated rhesus monkeys
[10] = biological target: rhesus CD40 on blood B cells (CD20+ cells of rhesus PBMCs) (rhesus macaque) (UniProt F6SNI1); test: receptor occupancy by flow cytometry on blood B cells of treated rhesus monkeys (Figure 19)

binding [1]: binds
binding (recombinant human CD40 [2]): binds
binding [3]: binds
binding (recombinant human CD40 [4]): binds
binding [5]: binds
binding [6]: binds
B1: 2C10 (murine anti-CD40 antibody) (antibody, V domains shown)
VH: QVQLQQSGAELAKPGASVKMSCKASGYTFTNYWMHWVKQRPGQGLEWIGYINPSNDYTKYNQKFKDKATLTADKSSNTAYMQLGSLTSEDSAVYYCARQGFPYWGQGTLVTVSA
VL: QIVLTQSPAIMSASPGEKVTMTCSASSSVSYMHWYHQRSGTSPKRWIYDTSKLASGVPARFSGSGSGTSYSLTISSMEAEDAATYYCHQLSSDPFTFGSGTKLEIK

binding [7]: binds
binding [8]: binds
B2: humanized 2C10 antibody, Clone 2.189.2 (2C10_h3 + 2C10_l2) (antibody, V domains shown)
VH: QVQLVQSGAEVKKPGASVKVSCKASGYTFTNYWMHWVRQAPGQRLEWIGYINPSNDYTKYNQKFKDRATLTADKSANTAYMELSSLRSEDTAVYYCARQGFPYWGQGTLVTVSS
VL: EIVLTQSPATLSLSPGERATLSCSASSSVSYMHWYQQKPGQAPRRWIYDTSKLASGVPARFSGSGSGTDYTLTISSLEPEDFAVYYCHQLSSDPFTFGGGTKVEIK
notes: also called h2C10; mAb 2.189.2

binding [9]: binds
binding [10]: binds
B3: humanized 2C10 (h2C10) in the stabilized IgG4 format (antibody, V domains shown)
VH: B2 VH
VL: EIVLTQSPATLSLSPGERATLSCSASSSVSYMHWYQQKPGQAPRRWIYDTSKLASGVPARFSGSGSGTDYTLTISSLEPEDFAVYYCHQLSSDPFTFGGGTKVEIKR
